Results are given in words; binding and its absence hold for the method and conditions named. In cells and extracts the contact can be indirect. Some entries that bind do so weakly or less than the wild type. Sequences can lack the tags named with a protein.
Legend:
[1] = target: 3HA-PREB (86–328 aa) (human) (UniProt Q9HCU5); test: co-IP; HEK293T cells co-transfected, 48 h; lysis buffer 50 mM Tris-HCl pH 8.0, 150 mM NaCl, 1% NP-40; lysates with antibodies 3 h, Protein A-agarose 4 °C 3 h, six washes; in Fig. 6B precipitation with HA antibodies, blots with HA and Flag antibodies
[2] = target: T1, 3HA-PREB (human prolactin regulatory element binding protein) (human) (UniProt Q9HCU5); test: as above
T1 sequence: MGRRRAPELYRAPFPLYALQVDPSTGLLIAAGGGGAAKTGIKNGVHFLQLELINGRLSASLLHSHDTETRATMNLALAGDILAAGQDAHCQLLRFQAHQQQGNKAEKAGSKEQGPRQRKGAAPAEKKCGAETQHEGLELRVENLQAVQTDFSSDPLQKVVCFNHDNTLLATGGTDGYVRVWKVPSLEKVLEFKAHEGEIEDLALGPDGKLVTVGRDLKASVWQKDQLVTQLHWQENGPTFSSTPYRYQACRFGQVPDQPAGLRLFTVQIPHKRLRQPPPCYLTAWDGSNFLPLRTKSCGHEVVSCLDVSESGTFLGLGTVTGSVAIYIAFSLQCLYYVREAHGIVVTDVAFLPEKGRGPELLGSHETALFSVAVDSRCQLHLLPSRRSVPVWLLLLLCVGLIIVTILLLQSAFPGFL

B1: Flag-Tas (prototype foamy virus Tas) (protein, UniProt P14353 1-300)
chain: MDSYEKEESVASTSGIQDLQTLSELVGPENAGEGELTIAEEPEENPRRPRRYTKREVKCVSYHAYKEIEDKHPQHIKLQDWIPTPEEMSKSLCKRLILCGLYSAEKASEILRMPFTVSWEQSDTDPDCFIVSYTCIFCDAVIHDPMPIRWDPEVGIWVKYKPLRGIVGSAVFIMHKHQRNCSLVKPSTSCSEGPKPRPRHDPVLRCDMFEKHHKPRQKRPRRRSIDNESCASSSDTMANEPGSLCTNPLWNPGPLLSGLLEESSNLPNLEVHMSGGPFWEEVYGDSILGPPSGSGEHSVL
binding [1]: binds weakly
binding [2]: binds

From article PMC10604407
